For series [1], the system named is KpnDRT2 reverse transcriptase (Klebsiella pneumoniae). The experiment in a line: activity assay. To be noted: in vitro reverse transcription with 1 mM dNTPs, 5 mM MgCl2, 37 C; ncRNA consumed by 45 min; purified recombinant protein.
Series [2] shares this test system. The experiment in a line: activity in cells. The note with it: protein in cells, protein details: N-terminal 3xFLAG (some plasmids untagged), variant of KpnDRT2 ncRNA WT.
For series [3] the test system is unchanged. The experiment in a line: pull-down. The note with it: RIP-seq; strong ncRNA and cDNA enrichment; protein in cells; protein details: N-terminal 3xFLAG (some plasmids untagged); variant of KpnDRT2 ncRNA WT.

For some of these results: For at least one entry, the source does not settle the construct or the ends of the probe. For some of these results: Weaker means in comparison with the reference protein, sequence or condition of that experiment. For some of these results: Where cells or extracts were used, other partners may take part.

“GCCCUAAACAAAGGUUUAGGGGUAUUGUACAGGUUGUCAAGCCUCCCACAGGUCUUGGUGAAACCAAUCACUGUGACGACGGUAAGCAACACUUGGAUGAUAUUCAUAAUUGACUCCACGCUACUGAUUACAUUAUACAGCAUAUCUAACAUUUGCGGCGAGGUUCACAAUUUGUAUUUAGGUACUGAUUGUGGAUGAGAAGGUUGGAGAAAGACCACUUGGUUAAGCCGGAGGAUGUGUCCUAGAAUUGUCGCUAUUCUGUCAUCCUCCGGUUUUGCUAA [KpnDRT2 ncRNA WT]”: the “activity on this sequence” value in series [1] is “active”.
Take “GCCCUAAACAAAGGUUUAGGGGUAUUGUACAGGUUGUCAGCAUAUCUAACAUUUGCGGCGAGGUUCACAAUUUGUAUUUAGGUACUGAUUGUGGAUGAGAAGGUUGGAGAAAGACCACUUGGUUAAGCCGGAGGAUGUGUCCUAGAAUUGUCGCUAUUCUGUCAUCCUCCGGUUUUGCUAA [del100]”: the “activity on this sequence” value in series [2] (near-WT) is “active”.
In the case of “GCCCUAAACAAAGGUUUAGGGGUAUUGUACAGGUUGUCAAGCCUCCCACAGGUCUUGGUGAAACCAAUCACUGUGACGACGGUAAGCAACACUUGGAUGAUAUUCAUAAUUGACUCCACGCUACUGAUUACUGCUAGAGGAUGGAAUGACCUUAAAUCAGGGACGAUAUUAAACGGAACGUCCCUCAAGCGCGAGUAUUGAACCAGGCUUACGCCCAAGAACGUAGCAAGCAUUAUACAGCAUAUCUAACAUUUGCGGCGAGGUUCACAAUUUGUAUUUAGGUACUGAUUGUGGAUGAGAAGGUUGGAGAAAGACCACUUGGUUAAGCCGGAGGAUGUGUCCUAGAAUUGUCGCUAUUCUGUCAUCCUCCGGUUUUGCUAA [ins100_SL5]”, in series [2] (retained cDNA and RCRT), the “activity on this sequence” value is reported as “active”.
Turning to “GCCCUAAACAAAGGUUUAGGGGUAUUGUACAGGUUGUCAAGCCUCCCACAGGUCUUGGUUGCUAGAGGAUGGAAUGACCUUAAAUCAGGGACGAUAUUAAACGGAACGUAUAUUCAACGCAAUGAAGCCGGAGGAUUGGCGUGGGAAUCGUGCUUCUGUCUAAGCAAGUAAGGGUAUGAGGUCGCAACCGUCCCCCAAGCGUACAGGGUGCACUUUGUAACGAUUUGGGAGUCCAGAGACUCGCUGUUUUCGAAAUUUGCCCUCAAGCGCGAGUAUUGAACCAGGCUUACGCCCAAGAACGUAGCAAGCGAAACCAAUCACUGUGACGACGGUAAGCAACACUUGGAUGAUAUUCAUAAUUGACUCCACGCUACUGAUUACAUUAUACAGCAUAUCUAACAUUUGCGGCGAGGUUCACAAUUUGUAUUUAGGUACUGAUUGUGGAUGAGAAGGUUGGAGAAAGACCACUUGGUUAAGCCGGAGGAUGUGUCCUAGAAUUGUCGCUAUUCUGUCAUCCUCCGGUUUUGCUAA [ins250_SL3]”, the “activity on this sequence” value in series [2] (retained cDNA and RCRT) is listed as “active”.
For the sequence “GCCCUAAACAAAGGUUUAGGGGUAUUGUACAGGUUGUCAAGCCUCCCACAGGUCUUGGUGAAACCAAUCACUGUGACGACGGUAAGCAACACUUGGAUGAUAUUCAUAAUUGACUCCACGCUACUGAUUACAUUAUACAGCAUAUCUAACAUUUGCGGCGAGGUUCACAAUUUGUAUUUAGGUACUGAUUGUGGAUGAGAAGGUUGGAGAAAGACCACUUGGUUAAGCCGGAGGAUGUGUCCUAGAAUUGUCGCUAUUCUGUCAUCCUCCGGUUUUGCUAAUAUUC [3'ins5]”, the “activity on this sequence” value in series [2] (cDNA and RCRT similar to WT) was “active”.
On to “GCCCUAAACAAAGGUUUAGGGGUAUUGUACAGGUUGUCAAGCCUCCCACAGGUCUUGGUGAAACCAAUCACUGUGACGGAUAUUCAUAAUUGACUCCACGCUACUGAUUACAUUAUACAGCAUAUCUAACAUUUGCGGCGAGGUUCACAAUUUGUAUUUAGGUACUGAUUGUGGAUGAGAAGGUUGGAGAAAGACCACUUGGUUAAGCCGGAGGAUGUGUCCUAGAAUUGUCGCUAUUCUGUCAUCCUCCGGUUUUGCUAA [del20]”, for which the “activity on this sequence” value in series [2] (near-WT) is listed as “active”.
Take “GCCCUAAACAAAGGUUUAGGGGUAUUGUACAGGUUGUCAAGCCUCCCACAGGUCUUGGUGAAACCAAUCACUGUGACGACGGUAAGCAACACUUGGAUGAUAUUCAUAAUUGACUCCACGCUACCUAAUUUUUAGCGAAACAUAUCUAACAUUUGCGGCGAGGUUCACAAUUUGUAUUUAGGUACUGAUUGUGGAUGAGAAGGUUGGAGAAAGACCACUUGGUUAAGCCGGAGGAUGUGUCCUAGAAUUGUCGCUAUUCUGUCAUCCUCCGGUUUUGCUAA [SL5 scrambled ncRNA]”: the binding result in series [3] is recorded as “binds”.
Consider “GCCCUAAACAAAGGUUUAGGGGUAUUGUACAGGUUGUCAAGCCUCCCACAGGUCUUGGUGAAACCAAUCACUGUGACGACGGUAAGCAACACUUGGAUGAUAUUCAUAAUUGACUCCACGCUACUGAUUACUGCUAGAGGAUGGAAUGACCUUAAAUCAGGGACGAUAUUAAACGGAACGUAUAUUCAACGCAAUGAAGCCGGAGGAUUGGCGUGGGAAUCGUGCUUCUGUCUAAGCAAGUAAGGGUAUGAGGUCGCAACCGUCCCCCAAGCGUACAGGGUGCACUUUGUAACGAUUUGGGAGUCCAGAGACUCGCUGUUUUCGAAAUUUGCCCUCAAGCGCGAGUAUUGAACCAGGCUUACGCCCAAGAACGUAGCAAGCAUUAUACAGCAUAUCUAACAUUUGCGGCGAGGUUCACAAUUUGUAUUUAGGUACUGAUUGUGGAUGAGAAGGUUGGAGAAAGACCACUUGGUUAAGCCGGAGGAUGUGUCCUAGAAUUGUCGCUAUUCUGUCAUCCUCCGGUUUUGCUAA [ins250_SL5]”, for which the “activity on this sequence” value in series [2] (retained cDNA and RCRT) was “active”.
In the case of “GCCCUAAACAAAGGUUUAGGGGUAUUGUACAGGUUGUCAAGCCUCCCAUACAUUAUACAGCAUAUCUAACAUUUGCGGCGAGGUUCACAAUUUGUAUUUAGGUACUGAUUGUGGAUGAGAAGGUUGGAGAAAGACCACUUGGUUAAGCCGGAGGAUGUGUCCUAGAAUUGUCGCUAUUCUGUCAUCCUCCGGUUUUGCUAA [del80]”, the “activity on this sequence” value in series [2] (near-WT) was “active”.
With “GCCCUAAACAAAGGUUUAGGGGUAUUGUACAGGUUGUCAAGCCUCCCACAGGUCUUGGCGCUACUGAUUACAUUAUACAGCAUAUCUAACAUUUGCGGCGAGGUUCACAAUUUGUAUUUAGGUACUGAUUGUGGAUGAGAAGGUUGGAGAAAGACCACUUGGUUAAGCCGGAGGAUGUGUCCUAGAAUUGUCGCUAUUCUGUCAUCCUCCGGUUUUGCUAA [del60]”, the “activity on this sequence” value in series [2] (near-WT) was “active”.
On to “GCCCUAAACAAAGGUUUAGGGGUAUUGUACAGGUUGUCAAGCCUCCCACAGGUCUUGGUUGCUAGAGGAUGGAAUGACCUUAAAUCAGGGACGAUAUUAAACGGAACGUCCCUCAAGCGCGAGUAUUGAACCAGGCUUACGCCCAAGAACGUAGCAAGCGAAACCAAUCACUGUGACGACGGUAAGCAACACUUGGAUGAUAUUCAUAAUUGACUCCACGCUACUGAUUACAUUAUACAGCAUAUCUAACAUUUGCGGCGAGGUUCACAAUUUGUAUUUAGGUACUGAUUGUGGAUGAGAAGGUUGGAGAAAGACCACUUGGUUAAGCCGGAGGAUGUGUCCUAGAAUUGUCGCUAUUCUGUCAUCCUCCGGUUUUGCUAA [ins100_SL3]”, for which the “activity on this sequence” value in series [2] (retained cDNA and RCRT) is reported as “active”.
On to “GCCCUAAACAAAGGUUUAGGGGUAUUGUACAGGUUGUCAAGCCUCCCACAGGUCUUGGUGAAACCAAUAUUGACUCCACGCUACUGAUUACAUUAUACAGCAUAUCUAACAUUUGCGGCGAGGUUCACAAUUUGUAUUUAGGUACUGAUUGUGGAUGAGAAGGUUGGAGAAAGACCACUUGGUUAAGCCGGAGGAUGUGUCCUAGAAUUGUCGCUAUUCUGUCAUCCUCCGGUUUUGCUAA [del40]”, for which the “activity on this sequence” value in series [2] (near-WT) is reported as “active”.
“GCCCUAAACAAAGGUUUAGGGGUAUUGUACAUUAAACGUGGUCUGACCCCACCAGCUGGACACCAAUAAAAUAUUGAAGUCCACCUUUGCCGUCAAAGACCGGCUGCAAGUGCAGUAAGUUCCAAAACUUUUUCCCGGAUUUCGUGUAGUUGAUAAGCUGAACGGUCGUCGGGCGACGGUCGCGGAUAGCGUCACGAAUUUUUUGCACCGUGGCUUGGUCAGUUUCUGGCCCCUGCAAAAAACGCGCGUUGCGUCCCAUAAUCUCUUCACGGGAAUACUCCGUCAAUUCCAAGAAACCAUCUGAAGCUGAAAUGAUCGGGUAAUCAGGCAGCCAGGGGUCAGUAAUCACGAACGAUUUUUCCAUACAUUUGCGGCGAGGUUCACAAUUUGUAUUUAGGUACUGAUUGUGGAUGAGAAGGUUGGAGAAAGACCACUUGGUUAAGCCGGAGGAUGUGUCCUAGAAUUGUCGCUAUUCUGUCAUCCUCCGGUUUUGCUAA [sub_miniGFP1]”: in series [2] (low but detectable), the “activity on this sequence” value is on record as “less active”.
